Laboratory results reported in paper PMC10291038.
These are yes or no findings as the source states them, for the method shown. In cells and extracts the contact can be indirect. Some entries that bind do so weakly or less than the wild type. Where a sequence is shown, tags or fusion partners need not be part of it.

Key:
[1] = target: T1, PKS4 C* variant (Cys-143 and Cys-145 of motif C mutated to Ser) with a carboxyl-terminal triple HA tag (Arabidopsis thaliana) (UniProt Q9FYE2); assay: co-IP; solubilized microsome fraction S3 (extraction buffer with 0.5% Triton X-100) of 3-d-old etiolated seedlings; anti-HA magnetic beads (Miltenyi µMACS HA kit), 90 min at 4 °C; immunoblot with anti-HA and anti-NPH3
T1 sequence: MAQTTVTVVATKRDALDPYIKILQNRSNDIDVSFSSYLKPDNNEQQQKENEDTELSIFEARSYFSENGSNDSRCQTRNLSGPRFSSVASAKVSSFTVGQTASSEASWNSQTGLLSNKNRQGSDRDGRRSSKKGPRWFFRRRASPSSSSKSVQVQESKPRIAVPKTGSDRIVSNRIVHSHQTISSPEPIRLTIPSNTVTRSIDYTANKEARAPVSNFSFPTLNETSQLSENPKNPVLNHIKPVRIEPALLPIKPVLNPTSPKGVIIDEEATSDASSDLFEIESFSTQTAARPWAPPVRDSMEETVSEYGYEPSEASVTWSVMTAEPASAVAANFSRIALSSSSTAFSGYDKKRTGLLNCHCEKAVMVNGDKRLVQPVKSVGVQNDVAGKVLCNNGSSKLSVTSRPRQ

[2] = target: T2, PHYTOCHROME KINASE SUBSTRATE 4 with a carboxyl-terminal triple HA tag (PKS4-3xHA, wild type) (Arabidopsis thaliana) (UniProt Q9FYE2); assay: as above
T2 sequence: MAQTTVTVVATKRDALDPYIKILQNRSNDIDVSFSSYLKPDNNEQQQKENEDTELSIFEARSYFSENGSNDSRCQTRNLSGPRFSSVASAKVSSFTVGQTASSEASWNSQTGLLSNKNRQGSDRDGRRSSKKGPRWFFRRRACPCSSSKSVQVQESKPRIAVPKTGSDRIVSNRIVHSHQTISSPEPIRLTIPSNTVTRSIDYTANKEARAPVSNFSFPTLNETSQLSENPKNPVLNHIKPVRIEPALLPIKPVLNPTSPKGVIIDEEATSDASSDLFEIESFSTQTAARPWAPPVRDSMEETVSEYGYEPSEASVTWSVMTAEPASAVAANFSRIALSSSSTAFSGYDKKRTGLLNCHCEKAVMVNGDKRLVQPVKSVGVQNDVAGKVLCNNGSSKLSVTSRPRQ

B1: NONPHOTOTROPIC HYPOCOTYL 3 (protein, UniProt Q9FMF5 1-746)
chain: MMWESESDGGVGVGGGGGREYGDGVLSSNKHGGVKTDGFELRGQSWFVATDIPSDLLVKIGDMNFHLHKYPLLSRSGKMNRLIYESRDPDPTILILDDLPGGPEAFELASKFCYGVPVDLTATNISGLRCAAEYLEMTEDLEEGNLIFKTEAFLSYVVLSSWRDSILVLKSCEKLSPWAENLQIVRRCSESIAWKACSNPKGIRWAYTGKAPSPSTTNFAGSSPRWNESKDSSFYCSPSRNTNSQPVPPDWWFEDVSILRIDHFVRVITAIKVKGMRFELLGAVIMHYAGKWLPGLIKEGGVAIAPAMSSAIGGGLGLGGDEMSISCGSNSSGGSSGPDWKGGLHMVLSAGKTNGHQDSVACLAGLGISPKDQRMIVESLISIIPPQKDSVTCSFLLRLLRAANMLKVAPALITELEKRVGMQFEQATLQDLLIPGYNNKGETMYDVDLVQRLLEHFLVQEQTEGSSPSRMSPSPSQSMYADIPRGNNNNGGGGGGNNQNAKMRVARLVDSYLTEVARDRNLPLTKFQVLAEALPESARTCDDGLYRAIDSYLKAHPTLSEHERKRLCRVMDCQKLSMDACMHAAQNERLPLRVVVQVLFSEQVKISNALANTSLKESTTLGEAMGTYQPMIPNRKTLIEATPQSFQEGWAAAKKDINTLKFELETVKTKYVELQNEMEVMQRQFEKTGKVKNTPSSSAWTSGWKKLSKLTKMSGQESHDISSGGEQAGVDHPPPRKPRRWRNSIS
**Q.** With B1 as the binder, how does the binding [1] read?
**A.** binds

**Q.** And the binding [2]?
**A.** binds
